Results on 12 molecules are retold here after publication doi:10.1101/2021.03.11.435015.

Protein sequences, listed by entry. Tags and fused reporters are not part of them.
UniProt Q80U78: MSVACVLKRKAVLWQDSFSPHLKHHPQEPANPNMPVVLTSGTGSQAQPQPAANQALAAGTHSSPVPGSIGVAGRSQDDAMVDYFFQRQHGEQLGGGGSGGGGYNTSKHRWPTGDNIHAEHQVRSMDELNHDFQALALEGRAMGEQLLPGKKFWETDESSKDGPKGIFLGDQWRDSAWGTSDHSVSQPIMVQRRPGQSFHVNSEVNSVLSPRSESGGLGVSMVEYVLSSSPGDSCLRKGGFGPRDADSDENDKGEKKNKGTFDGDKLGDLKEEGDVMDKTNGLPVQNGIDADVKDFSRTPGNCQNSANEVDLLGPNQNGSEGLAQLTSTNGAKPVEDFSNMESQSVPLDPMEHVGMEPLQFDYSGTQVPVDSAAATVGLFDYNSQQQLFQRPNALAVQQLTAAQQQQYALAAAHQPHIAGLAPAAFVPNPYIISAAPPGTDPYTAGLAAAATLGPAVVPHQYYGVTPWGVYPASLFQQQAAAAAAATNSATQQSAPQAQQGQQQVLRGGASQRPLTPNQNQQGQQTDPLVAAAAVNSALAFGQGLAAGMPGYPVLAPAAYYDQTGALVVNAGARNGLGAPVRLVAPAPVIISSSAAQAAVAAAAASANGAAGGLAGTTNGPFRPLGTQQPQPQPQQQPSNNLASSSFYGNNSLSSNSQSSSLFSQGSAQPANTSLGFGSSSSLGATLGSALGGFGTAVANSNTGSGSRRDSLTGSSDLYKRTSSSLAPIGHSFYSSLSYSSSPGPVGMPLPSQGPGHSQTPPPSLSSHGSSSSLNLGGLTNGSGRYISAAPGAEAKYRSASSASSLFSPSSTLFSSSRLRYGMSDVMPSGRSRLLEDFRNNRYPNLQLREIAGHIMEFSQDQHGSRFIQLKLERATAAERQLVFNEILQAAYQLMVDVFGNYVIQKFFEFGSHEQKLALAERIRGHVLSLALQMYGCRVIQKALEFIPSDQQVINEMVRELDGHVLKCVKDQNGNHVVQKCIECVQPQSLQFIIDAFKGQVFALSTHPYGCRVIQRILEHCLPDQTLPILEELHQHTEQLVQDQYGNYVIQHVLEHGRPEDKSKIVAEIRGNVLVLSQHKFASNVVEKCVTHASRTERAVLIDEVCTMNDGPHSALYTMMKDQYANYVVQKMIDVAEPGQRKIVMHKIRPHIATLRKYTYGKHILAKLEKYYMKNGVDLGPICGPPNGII
UniProt Q9R1K5: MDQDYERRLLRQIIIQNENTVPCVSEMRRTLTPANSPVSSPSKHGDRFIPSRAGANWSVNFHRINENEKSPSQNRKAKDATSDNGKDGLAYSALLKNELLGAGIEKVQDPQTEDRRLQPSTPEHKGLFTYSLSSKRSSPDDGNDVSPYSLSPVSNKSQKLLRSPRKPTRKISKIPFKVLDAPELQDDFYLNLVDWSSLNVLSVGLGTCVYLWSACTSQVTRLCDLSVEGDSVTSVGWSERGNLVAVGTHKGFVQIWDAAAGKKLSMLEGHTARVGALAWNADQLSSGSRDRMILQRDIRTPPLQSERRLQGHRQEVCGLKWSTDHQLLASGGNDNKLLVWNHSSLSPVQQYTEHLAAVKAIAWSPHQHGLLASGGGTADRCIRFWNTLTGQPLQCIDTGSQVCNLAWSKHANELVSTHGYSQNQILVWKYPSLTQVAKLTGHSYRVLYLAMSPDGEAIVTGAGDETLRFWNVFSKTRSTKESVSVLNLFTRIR
UniProt Q8C5L3: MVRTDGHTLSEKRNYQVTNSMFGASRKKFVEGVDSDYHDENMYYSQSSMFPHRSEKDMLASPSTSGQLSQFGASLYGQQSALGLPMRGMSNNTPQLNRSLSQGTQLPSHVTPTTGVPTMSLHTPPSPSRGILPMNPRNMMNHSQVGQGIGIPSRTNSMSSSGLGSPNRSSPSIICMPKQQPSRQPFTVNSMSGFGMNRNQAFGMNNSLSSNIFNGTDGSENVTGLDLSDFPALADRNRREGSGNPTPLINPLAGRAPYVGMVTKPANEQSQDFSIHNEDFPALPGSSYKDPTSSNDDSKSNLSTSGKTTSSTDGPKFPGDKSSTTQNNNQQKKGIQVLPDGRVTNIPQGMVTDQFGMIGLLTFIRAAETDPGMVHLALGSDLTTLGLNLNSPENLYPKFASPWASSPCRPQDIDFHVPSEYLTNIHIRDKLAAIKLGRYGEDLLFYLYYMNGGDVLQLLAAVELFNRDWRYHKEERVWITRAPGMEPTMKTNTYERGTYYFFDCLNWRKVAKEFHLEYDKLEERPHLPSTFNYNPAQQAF
UniProt Q8CJG0: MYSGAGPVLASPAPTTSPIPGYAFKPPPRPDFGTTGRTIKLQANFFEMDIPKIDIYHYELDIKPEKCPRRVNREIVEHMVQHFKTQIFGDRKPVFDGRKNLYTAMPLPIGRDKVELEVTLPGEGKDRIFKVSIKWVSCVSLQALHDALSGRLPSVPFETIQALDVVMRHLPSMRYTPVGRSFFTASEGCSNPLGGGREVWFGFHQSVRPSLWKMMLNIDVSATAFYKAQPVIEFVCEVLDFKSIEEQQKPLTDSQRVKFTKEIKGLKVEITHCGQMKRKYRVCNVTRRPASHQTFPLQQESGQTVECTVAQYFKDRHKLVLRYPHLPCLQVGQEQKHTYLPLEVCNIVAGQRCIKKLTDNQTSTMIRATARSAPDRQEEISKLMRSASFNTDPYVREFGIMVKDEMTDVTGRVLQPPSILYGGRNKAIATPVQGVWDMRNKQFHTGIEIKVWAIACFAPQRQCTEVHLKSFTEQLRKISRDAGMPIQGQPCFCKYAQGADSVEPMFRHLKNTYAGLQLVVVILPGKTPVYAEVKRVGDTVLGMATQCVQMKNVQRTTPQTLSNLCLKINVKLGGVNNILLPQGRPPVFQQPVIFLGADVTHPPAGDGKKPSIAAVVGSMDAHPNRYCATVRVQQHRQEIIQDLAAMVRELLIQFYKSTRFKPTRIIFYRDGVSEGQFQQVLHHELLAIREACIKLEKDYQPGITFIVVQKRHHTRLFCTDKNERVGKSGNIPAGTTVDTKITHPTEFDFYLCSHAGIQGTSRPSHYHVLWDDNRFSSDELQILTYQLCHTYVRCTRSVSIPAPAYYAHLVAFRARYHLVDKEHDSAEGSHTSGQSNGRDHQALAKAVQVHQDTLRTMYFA
UniProt Q80U58: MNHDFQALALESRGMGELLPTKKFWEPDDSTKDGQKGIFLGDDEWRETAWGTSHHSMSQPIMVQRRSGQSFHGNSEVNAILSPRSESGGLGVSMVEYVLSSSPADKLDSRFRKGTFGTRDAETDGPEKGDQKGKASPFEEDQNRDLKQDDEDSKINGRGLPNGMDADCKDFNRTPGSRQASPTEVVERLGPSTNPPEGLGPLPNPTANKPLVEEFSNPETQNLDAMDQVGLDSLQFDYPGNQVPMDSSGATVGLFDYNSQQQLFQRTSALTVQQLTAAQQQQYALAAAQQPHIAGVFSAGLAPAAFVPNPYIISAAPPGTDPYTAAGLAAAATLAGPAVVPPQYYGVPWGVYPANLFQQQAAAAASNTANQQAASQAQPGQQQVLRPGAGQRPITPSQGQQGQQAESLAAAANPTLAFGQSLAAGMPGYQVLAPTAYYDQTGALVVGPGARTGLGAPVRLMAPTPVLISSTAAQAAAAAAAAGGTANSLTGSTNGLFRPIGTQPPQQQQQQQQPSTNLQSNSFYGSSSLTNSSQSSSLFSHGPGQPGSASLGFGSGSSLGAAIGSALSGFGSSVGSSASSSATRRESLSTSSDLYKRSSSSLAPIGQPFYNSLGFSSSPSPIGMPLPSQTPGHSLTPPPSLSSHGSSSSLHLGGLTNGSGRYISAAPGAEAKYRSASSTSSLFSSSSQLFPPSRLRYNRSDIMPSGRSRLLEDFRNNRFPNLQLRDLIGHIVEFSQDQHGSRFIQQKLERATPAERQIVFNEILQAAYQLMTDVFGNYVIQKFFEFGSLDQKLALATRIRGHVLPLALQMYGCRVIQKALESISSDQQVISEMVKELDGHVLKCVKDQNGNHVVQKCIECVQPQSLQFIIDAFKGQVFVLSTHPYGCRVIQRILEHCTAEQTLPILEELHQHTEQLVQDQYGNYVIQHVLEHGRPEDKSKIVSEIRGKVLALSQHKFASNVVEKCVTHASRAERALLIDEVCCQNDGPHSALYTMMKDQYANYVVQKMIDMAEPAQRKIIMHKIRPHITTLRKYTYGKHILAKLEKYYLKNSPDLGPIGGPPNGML
UniProt P53995: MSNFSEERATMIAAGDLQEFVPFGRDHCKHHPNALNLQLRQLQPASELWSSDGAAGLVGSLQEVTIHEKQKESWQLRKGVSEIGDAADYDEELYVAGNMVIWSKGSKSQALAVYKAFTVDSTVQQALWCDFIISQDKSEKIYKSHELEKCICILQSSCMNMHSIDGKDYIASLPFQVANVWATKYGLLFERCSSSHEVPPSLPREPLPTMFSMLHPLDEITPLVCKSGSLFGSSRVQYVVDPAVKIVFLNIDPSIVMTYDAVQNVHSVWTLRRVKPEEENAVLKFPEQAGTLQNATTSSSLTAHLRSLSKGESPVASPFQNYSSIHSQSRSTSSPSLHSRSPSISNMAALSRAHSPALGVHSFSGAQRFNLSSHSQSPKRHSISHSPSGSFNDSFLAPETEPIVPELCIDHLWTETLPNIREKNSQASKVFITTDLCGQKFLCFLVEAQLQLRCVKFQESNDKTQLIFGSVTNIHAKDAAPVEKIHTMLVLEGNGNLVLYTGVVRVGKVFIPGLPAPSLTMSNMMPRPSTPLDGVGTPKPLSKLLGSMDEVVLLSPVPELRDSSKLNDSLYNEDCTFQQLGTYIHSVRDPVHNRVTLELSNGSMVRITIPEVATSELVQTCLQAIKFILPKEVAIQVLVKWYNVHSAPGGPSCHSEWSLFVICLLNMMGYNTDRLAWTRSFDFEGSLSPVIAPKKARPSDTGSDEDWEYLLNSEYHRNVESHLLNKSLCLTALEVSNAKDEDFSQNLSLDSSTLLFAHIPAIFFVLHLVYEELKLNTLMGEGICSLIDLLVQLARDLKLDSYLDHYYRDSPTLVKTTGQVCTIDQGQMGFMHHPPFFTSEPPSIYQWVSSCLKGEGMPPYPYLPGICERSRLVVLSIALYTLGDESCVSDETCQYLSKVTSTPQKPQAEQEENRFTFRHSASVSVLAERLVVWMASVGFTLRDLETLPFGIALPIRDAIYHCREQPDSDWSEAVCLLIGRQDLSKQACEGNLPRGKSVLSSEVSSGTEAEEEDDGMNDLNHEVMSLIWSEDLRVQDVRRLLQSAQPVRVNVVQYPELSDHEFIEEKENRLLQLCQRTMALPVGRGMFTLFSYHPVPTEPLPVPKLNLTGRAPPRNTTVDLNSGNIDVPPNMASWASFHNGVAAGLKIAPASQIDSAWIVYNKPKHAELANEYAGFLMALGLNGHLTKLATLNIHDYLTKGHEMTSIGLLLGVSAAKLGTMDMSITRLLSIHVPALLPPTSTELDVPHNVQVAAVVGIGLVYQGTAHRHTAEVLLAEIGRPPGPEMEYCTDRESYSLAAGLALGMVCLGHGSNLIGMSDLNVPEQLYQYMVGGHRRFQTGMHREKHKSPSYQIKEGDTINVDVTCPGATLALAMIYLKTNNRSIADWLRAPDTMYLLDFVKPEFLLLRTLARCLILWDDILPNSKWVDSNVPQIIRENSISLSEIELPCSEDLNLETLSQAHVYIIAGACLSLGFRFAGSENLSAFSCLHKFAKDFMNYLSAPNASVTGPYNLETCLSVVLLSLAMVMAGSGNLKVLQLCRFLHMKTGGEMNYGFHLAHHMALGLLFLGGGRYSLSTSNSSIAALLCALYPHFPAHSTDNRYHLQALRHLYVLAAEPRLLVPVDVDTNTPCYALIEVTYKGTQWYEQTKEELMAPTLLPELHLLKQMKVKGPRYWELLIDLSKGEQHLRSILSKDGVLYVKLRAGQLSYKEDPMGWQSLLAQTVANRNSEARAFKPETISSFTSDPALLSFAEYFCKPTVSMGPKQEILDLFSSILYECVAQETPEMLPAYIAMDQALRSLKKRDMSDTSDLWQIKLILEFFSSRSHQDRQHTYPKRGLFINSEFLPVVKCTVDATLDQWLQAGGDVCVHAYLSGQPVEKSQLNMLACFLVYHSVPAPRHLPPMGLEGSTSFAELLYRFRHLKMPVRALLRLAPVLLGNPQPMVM

These are yes or no findings as the source states them, for the method shown. Binding seen in cells or lysates may run through a third protein. Here binding means that the protein was enriched with, or labelled near, the bait; the list need not be complete.

The chains are these.
B1: Rbfox1, mouse (protein, UniProt Q9JJ43 1-396)
chain: MNCEREQLRGNQEAAAAPDTMAQPYASAQFAPPQNGIPAEYTAPHPHPAPEYTGQTTVPDHTLNLYPPTQTHSEQSADTSAQTVSGTATQTDDAAPTDGQPQTQPSENTESKSQPKRLHVSNIPFRFRDPDLRQMFGQFGKILDVEIIFNERGSKGFGFVTFENSADADRAREKLHGTVVEGRKIEVNNATARVMTNKKTVNPYTNGWKLNPVVGAVYSPDFYAGTVLLCQANQEGSSMYSGPSSLVYTSAMPGFPYPAATAAAAYRGAHLRGRGRTVYNTFRAAAPPPPIPAYGGVVYQDGFYGADIYGGYAAYRYAQPTPATAAAYSDSYGRVYAADPYHHTLAPAPTYGVGAMNAFAPLTDAKTRSHADDVGLVLSSLQASIYRGGYNRFAPY
B2: Rbfox2, mouse (protein, UniProt Q8BP71 1-449)
chain: MAEGGQAQQQPPQLGPGAAARGMKRESEVELPVPGAGADGPEPGLSKRPRTEEAADGGMQNEPLTPGYHGFPARDGQGNQEPTTTPDAMVQPFTTIPFPPPPQNGIPTEYGVPHTQDYAGQTSEHNLTLYGSTQPHGEQSSNSPSNQNGSLTQTEGGAQTDGQQSQTQSSENSESKSTPKRLHVSNIPFRFRDPDLRQMFGQFGKILDVEIIFNERGSKGFGFVTFENSADADRAREKLHGTVVEGRKIEVNNATARVMTNKKMVTPYANGWKLSPVVGAVYGPELYAASSFQADVSLGNEAAVPLSGRGGINTYIPLISLPLVPGFPYPTAATTAAAFRGAHLRGRGRTVYGAVRAVPPTAIPAYPGVVYQDGFYGADLYGGYAAYRYAQPATATAATAAAAAAAAYSDGYGRVYTADPYHALAPAASYGVGAVASLYRGGYSRFAPY

The target of the first test is Pumilio1 (Pum1), mouse (mouse (endogenous in brain)) (UniProt Q80U78). In words: affinity purification with mass spectrometry.
In the case of B1, the binding entry is “binds”.
B2: the binding result is “binds”.

Another test shares this target. Description: affinity purification with mass spectrometry. The source holds these as a separate data set.
For the molecule Fzr1, mouse (from UniProt Q9R1K5 1-493), the binding entry was “binds”.
For “Cnot2, mouse (from UniProt Q8C5L3 1-540)”, the binding entry is recorded as “binds”.
Take Ago2, mouse (from UniProt Q8CJG0 1-860): the binding entry is “binds”.
Still for that read-out and setting: then “Eif3b, mouse (from UniProt Q8JZQ9 1-803)”, with “binds”; and “Cnot1, mouse (from UniProt Q6ZQ08 1-2375)”, with “binds”.
The same measure, in the same setting: for “Rptor, mouse (from UniProt Q8K4Q0 1-1335)” the value was “binds”; for “Pum2, mouse (from UniProt Q80U58 1-1066)”, “binds”; for “Anapc1, mouse (from UniProt P53995 1-1944)”, “binds”.
For the molecule “Cnot10, mouse (from UniProt Q8BH15 1-744)”, the binding result is “binds”.
On the same count and under the same terms, then Cad, mouse (from UniProt B2RQC6 1-2225), with “binds”.

The target is the same in a further test. In words: affinity purification with mass spectrometry. The source holds these as a separate data set.
Turning to “Eif3b, mouse (from UniProt Q8JZQ9 1-803)”, the binding entry is on record as “binds”.
With B2, the binding result was “binds”.

The next test shares this target. Description: affinity purification with mass spectrometry. This is another data set of the same source.
In the case of “Cnot1, mouse (from UniProt Q6ZQ08 1-2375)”, the binding entry is “binds”.
